Measurements reported in patent US20230083243A1.
These are yes or no findings as the source states them, for the method shown. Some binding calls cover weakened binding; strength is not graded here.

Protein sequences, listed by entry. Tags and fused reporters are not part of them. Lines headed by an entry give the natural chain unless they say otherwise; changes in a name come on top.
UniProt P04003: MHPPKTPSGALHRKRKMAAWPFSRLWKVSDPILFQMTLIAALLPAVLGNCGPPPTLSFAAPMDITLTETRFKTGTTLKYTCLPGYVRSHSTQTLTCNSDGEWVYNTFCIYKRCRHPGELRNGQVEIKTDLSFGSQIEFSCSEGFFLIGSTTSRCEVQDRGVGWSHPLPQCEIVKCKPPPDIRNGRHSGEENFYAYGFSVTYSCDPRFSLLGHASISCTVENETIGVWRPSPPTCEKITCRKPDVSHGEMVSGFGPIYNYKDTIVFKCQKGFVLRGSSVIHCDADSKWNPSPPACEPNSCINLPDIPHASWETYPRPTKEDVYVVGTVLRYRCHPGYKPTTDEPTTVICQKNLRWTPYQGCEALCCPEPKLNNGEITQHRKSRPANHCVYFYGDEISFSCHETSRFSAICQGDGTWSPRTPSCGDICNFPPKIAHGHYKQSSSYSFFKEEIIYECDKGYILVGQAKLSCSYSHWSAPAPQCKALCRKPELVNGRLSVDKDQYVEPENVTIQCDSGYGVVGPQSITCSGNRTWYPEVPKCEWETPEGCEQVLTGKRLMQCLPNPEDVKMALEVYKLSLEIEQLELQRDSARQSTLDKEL
UniProt P20851: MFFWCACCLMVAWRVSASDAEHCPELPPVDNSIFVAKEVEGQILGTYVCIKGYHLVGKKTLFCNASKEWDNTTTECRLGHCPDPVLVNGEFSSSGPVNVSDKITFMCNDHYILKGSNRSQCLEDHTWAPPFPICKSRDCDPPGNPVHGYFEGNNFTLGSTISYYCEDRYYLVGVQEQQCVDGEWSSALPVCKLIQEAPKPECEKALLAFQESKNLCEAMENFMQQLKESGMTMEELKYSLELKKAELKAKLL

T1: reduced Protein S (human) (UniProt P07225)
T1 sequence: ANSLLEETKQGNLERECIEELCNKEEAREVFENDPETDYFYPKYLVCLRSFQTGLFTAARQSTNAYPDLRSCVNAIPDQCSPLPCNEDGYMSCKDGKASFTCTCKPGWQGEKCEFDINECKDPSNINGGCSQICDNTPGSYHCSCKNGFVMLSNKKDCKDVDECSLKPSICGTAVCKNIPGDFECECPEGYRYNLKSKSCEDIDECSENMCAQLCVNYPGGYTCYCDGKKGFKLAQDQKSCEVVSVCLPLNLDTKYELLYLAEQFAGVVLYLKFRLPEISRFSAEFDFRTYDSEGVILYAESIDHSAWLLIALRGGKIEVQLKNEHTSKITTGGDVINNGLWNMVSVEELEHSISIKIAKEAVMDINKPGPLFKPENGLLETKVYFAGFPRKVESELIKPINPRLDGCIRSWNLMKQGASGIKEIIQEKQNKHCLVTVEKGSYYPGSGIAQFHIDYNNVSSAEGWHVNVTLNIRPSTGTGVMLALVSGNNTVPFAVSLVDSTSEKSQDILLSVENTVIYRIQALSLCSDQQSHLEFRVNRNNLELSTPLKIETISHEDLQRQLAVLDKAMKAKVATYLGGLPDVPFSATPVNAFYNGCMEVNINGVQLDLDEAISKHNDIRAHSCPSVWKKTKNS

B1: Antibody 3 (antibody, V domains shown)
VH: EVQLVESGGGLVQPGRSLRLSCAASGFTFDDYAMHWVRQAPGKGLEWVSGITWNSGNIGYADSVKGRFTISRDNAKNSLYLHMNSLRIEDTAFYYCAKGRAVSDTFDIWGQGTMVTVSS
VL: SYELNQPPSVSVSPGQTASITCSGDKLGDKYASWYQQKPGQSPVVAIYQNSKRPSGIPERFSASNSGNTATLTISGTQALDEADYYCQAWDSSTWVFGGGTKLTVL
B2: Antibody 1 (antibody, V domains shown)
VH: QVQLVQSGAEVKKPGSSVKVSCKVSGGTFSSYSISWVRQAPGQGLEWMGGIIPIFGTTNYAQKFQGRVTITADESTSTAYMDLSSLKSEDTAMYYCEGGRVGADFDYWGQGTLVTVSS
VL: SSDLTQGPAVSVALGQTVRITCQGDSLRNYYASWYQQKPGQAPVPVIYGKNDRPSGIPDRFSGSISGNTASLTITGAQAEDEAHYYCNSRDSSGNHVVFGGGTKLTVL
B3: Antibody 12 (antibody, V domains shown)
VH: QVQLQESGPGLVKPSETLSLTCGVSGGSISSTNWWSWVRQPPGKGLEWIGEIYQTGSTDYDPSLKSRVTISIDKSKNQFSLKLYSVTAADTAVYYCARRFGELDYWGQGTLVTVSS
VL: EIVMTQSPATLSVSPGERATLSCRASQSVTSNLAWYQQKPGQAPRLLIYDASTRATGIPARFSGSGSGTEFTLTISSLQSEDFAIYYCQQYNNWPTFGQGTRLEIK
B4: Antibody 27 (antibody, V domains shown)
VH: QVQLQQSGPGLVKPSQTLSLTCAISGDSVSNNNAAWNWIRQSPSRGLEWLGGTYYRSKWYNDYAVSVKSRIIINPVTSKNQFSLQLNSVTPEDTAVYYCARGSSWYRFFDYWGQGTLVTVSS
VL: EIVLTQSPGTLSLSPGERATLSCRASQSVGSSYLAWYQQKPGQAPRLLISGASGRATGIPDRFSGSGSGTDFTLTISRLEPEDFTVYYCQQYGSSPYTFGQGTKLEIK
B5: Antibody 8 (antibody, V domains shown)
VH: QVQLQESGPGLVKPSETLSLTCAVSGYSISSGYYWGWIRQPPGKGLDWIGSIYYSGSTYYNPSLKSRVTISVDTSKNQISLKLSSVTAADTAVYYCATTYSDIVTGYYNDAFDIWGQGTMVTVSS
VL: EIVMTQSPATLSVSPGERATLSCRASQRINSNLAWYQQKPGQAPRLLIYGASTRATGIPARFSGSGSGTEFTLTISSLQSEDFAAYYCQQYDNWPLTFGGGTKVEIK
B6: Antibody 28 (antibody, V domains shown)
VH: QVQLQQSGTELVRPGTSVKMSCKAAGYTFTNHWIGWVKQRPGHGLEWIGDIYPGGGYTNYNEKFKGKASLTADTSSTTAYMQLSSLTSEDSAIYYCSRFGDQNWAWFAYWGQGTLVTVSA
VL: DIQMNQSPSSLSASLGDTITITCRASQNIHMWLSWYQQKPGNIPKLLIFKTSNLHTGVPSRFSGSGSGTDFTLTISSLQPEDIATYYCLQGQSYPFTFGGGTKLEIK
B7: Antibody 2 (antibody, V domains shown)
VH: QVQLQESGPGLVKPSQTLSLTCTVSGGSITSDGYHWSWIRQYPGKGLDWIGYIYYTGNTYYNPSLKSRVTISVGTSQNQFSLKLISVTAADTAVYYCARRLSTGPYFDYWGQGTLVTVSS
VL: QSALTQPASVSGSPGQSITISCTGTSSDVGGYEFVSWYQHHPGKAPKLMIYDVSSRPSGVSNRFSGSKSGNTASLTISGLQAEDEADYYCSSYTRSSTVVFGGGARLTVL
B8: Antibody 13 (antibody, V domains shown)
VH: QVQLVQSGAEVKKPGSSVKVSCKVSGGTFSSYSISWVRQAPGQGLEWMGGIIPIFGTTNYAQKFQGRVTITADESTSTAYMDLSSLKSEDTAMYYCEGGRVGADFDYWGQGTLVTVSS
VL: SSDLTQGPAVSVALGQTVRITCQGDSLRNYYASWYQQKPGQAPVPVIYGKNDRPSGIPDRFSGSISGNTASLTITGAQAEDEAHYYCNSRDSSGNHVVFGGGTKLTVL

These binders were tested against Protein S-C4BP complex (human) (UniProt P04003+P20851) (assay: BLI Octet; antibody on anti-human Fc probe; 100 µg/ml C4BP (C4BP-Protein S complex)).

binding, binds:
B1
B2
B3
B4
B5
B6
B7

These binders were tested against T1, reduced Protein S (human) (assay: Western blot).

binding, binds:
B8
